PubChem BioAssay AID1224830 | NIAID | 2016
Assay: 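Genes whose knock-down alters the TNF-alpha reporter response to LPS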 (primary screen). Cells: human THP-1 monocytic leukaemia cells, TNF dual-luciferase reporter clone, PMA-differentiated to macrophage-like cells. Knock-down reagent: siRNA pool against human genes, 50 nM. Timing: LPS for 4 h, given about 3 days after siRNA transfection. Challenge: bacterial LPS (TLR4 ligand), 10 ng/ml. Measurement: 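TNF firefly reporter luminescence divided by renilla, normalised to the plate median, then turned into a robust z-score for each replicate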. Direction: TNF reporter robust z-score: higher = stronger TNF reporter response to LPS. Rule for the call: 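Each well counts as active if its z-score is over 2.8 or under -1.5; controls are left without a call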.
In all, the deposit lists about 18,000 reagents; this is a random part of them. Over the whole deposit, about 2,900 (16%) were called active. 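Calls are made per well; low scores hint the gene aids the LPS response, high scores that it dampens it.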 Entries without a mark were called inactive. Repeated entries: four replicate wells of each siRNA pool.

gene knocked down	TNF reporter robust z-score
IL10RB (interleukin 10 receptor subunit beta)	0.03
IL10RB (interleukin 10 receptor subunit beta)	-0.13
IL10RB (interleukin 10 receptor subunit beta)	-1.04
IL10RB (interleukin 10 receptor subunit beta)	-1.16
ZBTB32 (zinc finger and BTB domain containing 32)	0.88
ZBTB32 (zinc finger and BTB domain containing 32)	0.48
ZBTB32 (zinc finger and BTB domain containing 32)	1.07
ZBTB32 (zinc finger and BTB domain containing 32)	0.56
KRT19 (keratin 19)	-0.22
KRT19 (keratin 19)	-0.43
KRT19 (keratin 19)	-0.02
KRT19 (keratin 19)	0.39
SPATS2 (spermatogenesis associated serine rich 2)	1.2
SPATS2 (spermatogenesis associated serine rich 2)	4.03 (active)
SPATS2 (spermatogenesis associated serine rich 2)	-0.25
SPATS2 (spermatogenesis associated serine rich 2)	2.01
CTSF (cathepsin F)	-0.22
CTSF (cathepsin F)	-0.85
CTSF (cathepsin F)	-0.02
CTSF (cathepsin F)	-0.79
ZNF653 (zinc finger protein 653)	-0.16
ZNF653 (zinc finger protein 653)	-0.59
ZNF653 (zinc finger protein 653)	-1.33
ZNF653 (zinc finger protein 653)	-0.11
CCT5 (chaperonin containing TCP1 subunit 5)	-0.21
CCT5 (chaperonin containing TCP1 subunit 5)	-0.8
CCT5 (chaperonin containing TCP1 subunit 5)	-1.39
CCT5 (chaperonin containing TCP1 subunit 5)	-1.09
NDST4 (N-deacetylase and N-sulfotransferase 4)	-0.34
NDST4 (N-deacetylase and N-sulfotransferase 4)	-0.18
NDST4 (N-deacetylase and N-sulfotransferase 4)	-1.37
NDST4 (N-deacetylase and N-sulfotransferase 4)	0.11
NIT1 (nitrilase 1)	1
NIT1 (nitrilase 1)	1.96
NIT1 (nitrilase 1)	0.6
NIT1 (nitrilase 1)	0.86
YKT6 (YKT6 vesicular SNARE protein)	1.01
YKT6 (YKT6 vesicular SNARE protein)	0.32
YKT6 (YKT6 vesicular SNARE protein)	0.38
YKT6 (YKT6 vesicular SNARE protein)	0.58
ZNF57 (zinc finger protein 57)	1.22
ZNF57 (zinc finger protein 57)	-0.47
ZNF57 (zinc finger protein 57)	0.22
ZNF57 (zinc finger protein 57)	-0.11
KLF11 (KLF transcription factor 11)	-1.06
KLF11 (KLF transcription factor 11)	0.2
KLF11 (KLF transcription factor 11)	-0.67
KLF11 (KLF transcription factor 11)	-0.36
NR1I2 (nuclear receptor subfamily 1 group I member 2)	0.01
NR1I2 (nuclear receptor subfamily 1 group I member 2)	0.05
NR1I2 (nuclear receptor subfamily 1 group I member 2)	0.47
NR1I2 (nuclear receptor subfamily 1 group I member 2)	0.54
GRIP2 (glutamate receptor interacting protein 2)	-1.83 (active)
GRIP2 (glutamate receptor interacting protein 2)	-1.8 (active)
GRIP2 (glutamate receptor interacting protein 2)	-1.87 (active)
GRIP2 (glutamate receptor interacting protein 2)	-2.13 (active)
COQ9 (coenzyme Q9)	-0.46
COQ9 (coenzyme Q9)	-0.28
COQ9 (coenzyme Q9)	-0.19
COQ9 (coenzyme Q9)	1.17

Already shown: entries from further up.
gene knocked down	TNF reporter robust z-score
CTSF (cathepsin F)	-0.79
ZNF653 (zinc finger protein 653)	-0.16
ZNF653 (zinc finger protein 653)	-0.59
ZNF653 (zinc finger protein 653)	-1.33
ZNF653 (zinc finger protein 653)	-0.11
CCT5 (chaperonin containing TCP1 subunit 5)	-0.21
CCT5 (chaperonin containing TCP1 subunit 5)	-0.8
CCT5 (chaperonin containing TCP1 subunit 5)	-1.39
CCT5 (chaperonin containing TCP1 subunit 5)	-1.09
NDST4 (N-deacetylase and N-sulfotransferase 4)	-0.34
NDST4 (N-deacetylase and N-sulfotransferase 4)	-0.18
NDST4 (N-deacetylase and N-sulfotransferase 4)	-1.37
NDST4 (N-deacetylase and N-sulfotransferase 4)	0.11

More results:
gene knocked down	TNF reporter robust z-score
RANGAP1 (Ran GTPase activating protein 1)	-0.65
RANGAP1 (Ran GTPase activating protein 1)	1.36
RANGAP1 (Ran GTPase activating protein 1)	-0.93
RANGAP1 (Ran GTPase activating protein 1)	-0.7
ARL6IP4 (ARF like GTPase 6 interacting protein 4)	0.18
ARL6IP4 (ARF like GTPase 6 interacting protein 4)	0.82
ARL6IP4 (ARF like GTPase 6 interacting protein 4)	0.41
ARL6IP4 (ARF like GTPase 6 interacting protein 4)	-0.25
PRDX3 (peroxiredoxin 3)	0.74
PRDX3 (peroxiredoxin 3)	0.81
PRDX3 (peroxiredoxin 3)	-0.43
PRDX3 (peroxiredoxin 3)	0.73
PHC3 (polyhomeotic homolog 3)	2.31
PHC3 (polyhomeotic homolog 3)	2.65
PHC3 (polyhomeotic homolog 3)	2.59
PHC3 (polyhomeotic homolog 3)	3.07 (active)
NOP16 (NOP16 nucleolar protein)	2.46
NOP16 (NOP16 nucleolar protein)	1.91
NOP16 (NOP16 nucleolar protein)	1.44
NOP16 (NOP16 nucleolar protein)	-1
DOP1A (DOP1 leucine zipper like protein A)	-0.55
DOP1A (DOP1 leucine zipper like protein A)	0.1
DOP1A (DOP1 leucine zipper like protein A)	-0.71
DOP1A (DOP1 leucine zipper like protein A)	0.11
INSL3 (insulin like 3)	0.09
INSL3 (insulin like 3)	-1.03
INSL3 (insulin like 3)	-1.29
FNTB (farnesyltransferase, CAAX box, subunit beta)	-0.56
FNTB (farnesyltransferase, CAAX box, subunit beta)	-0.14
FNTB (farnesyltransferase, CAAX box, subunit beta)	-0.26
FNTB (farnesyltransferase, CAAX box, subunit beta)	0.72
FAM47A (family with sequence similarity 47 member A)	-0.28
FAM47A (family with sequence similarity 47 member A)	-0.56
FAM47A (family with sequence similarity 47 member A)	1.58
FAM47A (family with sequence similarity 47 member A)	0.14
DENND2B (DENN domain containing 2B)	-1.59 (active)
DENND2B (DENN domain containing 2B)	0.87
DENND2B (DENN domain containing 2B)	1.11
DENND2B (DENN domain containing 2B)	0.53
ZNF615 (zinc finger protein 615)	0.89
ZNF615 (zinc finger protein 615)	0.73
ZNF615 (zinc finger protein 615)	0.9
ZNF615 (zinc finger protein 615)	2.8 (active)
NGF (nerve growth factor)	-0.48
NGF (nerve growth factor)	-0.71
NGF (nerve growth factor)	-0.04
NGF (nerve growth factor)	0.46
SCRN3 (secernin 3)	0.12
SCRN3 (secernin 3)	-0.12
SCRN3 (secernin 3)	-0.6
SCRN3 (secernin 3)	0.23
